Results as given in PubChem BioAssay AID540256 (National Center for Advancing Translational Sciences (NCATS), 2011).
Hit rate of the full screen: of about 300,000 compounds, about 3,700 (1.2%) were called active. This list was built around the results that the source calls inconclusive (neither active nor inactive); the mix of calls is not that of the screen. The call rests on the fitted dose curve; tested in HEK293 cells. A potency beside an inconclusive call is a rough fit, not a confirmed value.

Experiment: qHTS for Inhibitors of binding or entry into cells for Lassa Virus; further: nearly all actives have a fitted effect of over 50% in size
Conditions: Lassa virus pseudotype entry inhibition, cell reporter; series mostly up to 37.9 µM
Potency means the concentration at half of the fitted maximal effect.

| Compound | Potency |
| --- | --- |
| NC[C@@H]1O[C@H](C23CC4CC(CC(C4)C2)C3)Cc2c1ccc(O)c2O | active: 18.3 µM |
| O=c1nc(N/N=C/c2ccccn2)cn[nH]1 | active: 3.55 µM |
| Cc1ccc(N2C(=O)C(O)(C(F)(F)F)C3=C2CC(C)(C)CC3=O)cc1 (centres undefined) | inconclusive: 28.2 µM [activator, single point] |
| Cc1nn(C)c(Cl)c1S(=O)(=O)N[C@@H](c1ccccc1)[C@]1(C)C[C@H]1[C@@H](C)C(=O)Nc1ccc2ccccc2c1 | inconclusive: 23.1 µM [inhibitor, single point] |
| Cc1cc(NC(=O)c2ccccc2)no1 | inconclusive: 35.5 µM [inhibitor, single point] |
| COc1ccc(-c2nc(CN3CCC(C(=O)NCCCN4CCN(c5ccccc5F)CC4)CC3)c(C)o2)cc1OC | inconclusive: 10 µM [inhibitor, partial curve] |
| Cc1ccc(OCC(=O)Nc2ccccc2F)cc1 | inconclusive: 35.5 µM [inhibitor, single point] |
| CC(=O)Nc1ccc(OCC(O)Cn2ccnc2C)cc1 (centres undefined) | inconclusive: 29.1 µM [activator, partial curve, poor fit] |
| CC(C)NC(=O)C(c1ccc(F)cc1)N(C(=O)CCC(=O)Nc1ccccn1)c1cccc(F)c1 (centres undefined) | inconclusive: 1.78 µM [inhibitor, partial curve, poor fit] |
| Cc1cc(OCC(=O)N2CCc3ccccc3C2)c2c(-c3ccccc3)cc(=O)oc2c1 | inconclusive: 25.1 µM [inhibitor, single point] |
| Cc1cccc(CN2CCN([C@H]3C[S+](=O)([O-])N[C@H]3COCc3ccccc3)CC2)c1 | inconclusive: 28.1 µM [activator, single point] |
| COC(=O)c1ccc(NC(=O)CSCc2ccccc2)cc1 | inactive |
| O=Cc1ccc2noc(-c3ccc(Cl)cc3)c2c1 | inactive |
| Cc1ccc(SCC(=O)c2ccc(CC(=O)O)s2)cc1 | inconclusive: 35.5 µM [activator, partial curve, poor fit] |
| Fc1ccc(CNCCc2ccccc2F)cc1 | inactive |
| Cc1ccccc1NC(=S)NNC(=O)c1csc2c1CCC(C)C2 (centres undefined) | inactive |
| Cc1cccc(C)c1OCc1cc(C(=O)N2CCN(c3ccccc3)CC2C)no1 (centres undefined) | inconclusive: 10 µM [inhibitor, partial curve, poor fit] |
| Cc1ccc2c(C)nc(Nc3nc(CSc4nc5ccccc5s4)cc(=O)[nH]3)nc2c1 | inconclusive: 7.08 µM [inhibitor, partial curve, poor fit] |
| CC1Cc2ccccc2N1S(=O)(=O)c1cccc(C(=O)NCc2ccncc2)c1 (centres undefined) | inactive |

Two records drawn at random from the list so far:

| Compound | Potency |
| --- | --- |
| Cc1ccc(SCC(=O)c2ccc(CC(=O)O)s2)cc1 | inconclusive: 35.5 µM [activator, partial curve, poor fit] |
| COC(=O)c1ccc(NC(=O)CSCc2ccccc2)cc1 | inactive |
